No constants are given. Whether binding was seen depends on the method and setting.
Target: T1, Pbx3 (UniProt O35317)
T1 sequence: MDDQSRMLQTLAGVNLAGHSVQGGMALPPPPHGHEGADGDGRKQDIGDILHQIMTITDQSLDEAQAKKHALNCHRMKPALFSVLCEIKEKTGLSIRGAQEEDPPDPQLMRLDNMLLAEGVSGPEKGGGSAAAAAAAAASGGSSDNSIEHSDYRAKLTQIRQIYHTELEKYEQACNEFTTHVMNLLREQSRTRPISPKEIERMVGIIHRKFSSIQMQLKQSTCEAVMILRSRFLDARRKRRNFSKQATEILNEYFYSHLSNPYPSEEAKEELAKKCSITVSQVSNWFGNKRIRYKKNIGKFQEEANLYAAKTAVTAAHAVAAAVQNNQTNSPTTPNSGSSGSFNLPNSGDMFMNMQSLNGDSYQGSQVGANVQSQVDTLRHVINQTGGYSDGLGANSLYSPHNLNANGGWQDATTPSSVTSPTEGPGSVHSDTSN
Assay: native gel or EMSA; gel mobility shift: recombinant Hoxc6 derivatives and Pbx3 together on IRDye-800 labelled DNA probes (Foxp1/hs1149 site, Fkh250con*); cooperative binding on DNA; 50 mM Tris-HCl pH 7.5, 250 mM NaCl, 5 mM MgCl2, 20% glycerol, 2.5 mM DTT, 2.5 mM EDTA, poly dIdC, 0.1% BSA, 20 min at room temperature; 0.5-2 pmol protein per reaction; both purified

The chains behind the UniProt entries cited, without tags or fusion partners. Where a name states a change or a piece, a line headed by the entry shows the natural chain unless it says otherwise.
UniProt P10629: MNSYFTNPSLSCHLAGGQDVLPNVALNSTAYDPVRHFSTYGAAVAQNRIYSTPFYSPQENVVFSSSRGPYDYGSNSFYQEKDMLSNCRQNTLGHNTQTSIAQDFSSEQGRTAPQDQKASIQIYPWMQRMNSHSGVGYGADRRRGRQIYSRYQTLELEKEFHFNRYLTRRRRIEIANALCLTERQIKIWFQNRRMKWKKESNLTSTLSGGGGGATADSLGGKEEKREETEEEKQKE

- binding: no binding
Substance: Hoxc6NΔ91+IM (from UniProt P10629) (domain or fragment)

Source: publication PMC3554521
